At least one peptide structure holds a part that was inferred or is arguable (an end, a ring closure or a residue). Numbered stars: 1 amine (or outer) side, 2 acyl side, 3 side chain; on linkers, the order of the positions; unused ones are H or OH. Bridge positions count the residues as written; N and C are the ends. Square brackets hold non-standard residues; d marks the D form. Peptide text beside a SMILES is read from it. X1 = O=C(C=NOCCCCCCOc1cc(C[*:2])cc(C[*:3])c1)[*:1]; Cba = N[C@@H](CC1CCC1)C(=O)O; Nle = CCCC[C@H](N)C(=O)O
Target: T1, rh-integrin α4β7/LPAM-1 (Homo sapiens, UniProt P13612+P26010)
T1 sequence (P13612 34-977 limits assumed): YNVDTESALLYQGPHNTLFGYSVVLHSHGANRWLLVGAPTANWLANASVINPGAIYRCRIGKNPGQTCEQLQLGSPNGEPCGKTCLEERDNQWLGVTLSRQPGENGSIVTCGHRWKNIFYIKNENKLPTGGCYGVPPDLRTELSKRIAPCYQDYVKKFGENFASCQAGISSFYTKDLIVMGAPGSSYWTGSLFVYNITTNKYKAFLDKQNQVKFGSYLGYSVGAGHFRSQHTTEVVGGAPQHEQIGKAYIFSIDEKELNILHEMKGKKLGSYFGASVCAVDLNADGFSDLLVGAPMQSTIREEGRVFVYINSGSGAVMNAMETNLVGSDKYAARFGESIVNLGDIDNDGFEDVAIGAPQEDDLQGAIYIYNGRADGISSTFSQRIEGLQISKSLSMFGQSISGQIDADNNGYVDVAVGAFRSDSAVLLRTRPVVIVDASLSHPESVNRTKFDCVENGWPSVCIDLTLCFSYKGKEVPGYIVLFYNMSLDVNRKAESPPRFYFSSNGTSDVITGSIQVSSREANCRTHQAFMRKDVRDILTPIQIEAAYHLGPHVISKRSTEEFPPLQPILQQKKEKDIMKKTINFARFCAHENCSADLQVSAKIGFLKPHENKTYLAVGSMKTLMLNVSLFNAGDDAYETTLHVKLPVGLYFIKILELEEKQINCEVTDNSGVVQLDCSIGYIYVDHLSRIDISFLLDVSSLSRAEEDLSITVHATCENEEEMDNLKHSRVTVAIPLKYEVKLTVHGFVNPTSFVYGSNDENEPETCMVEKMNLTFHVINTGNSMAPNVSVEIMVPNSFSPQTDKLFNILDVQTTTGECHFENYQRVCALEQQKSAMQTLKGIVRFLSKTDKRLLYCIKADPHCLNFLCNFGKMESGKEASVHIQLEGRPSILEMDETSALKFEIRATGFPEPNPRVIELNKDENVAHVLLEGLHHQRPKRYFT
T1 sequence (P26010 20-723 limits assumed): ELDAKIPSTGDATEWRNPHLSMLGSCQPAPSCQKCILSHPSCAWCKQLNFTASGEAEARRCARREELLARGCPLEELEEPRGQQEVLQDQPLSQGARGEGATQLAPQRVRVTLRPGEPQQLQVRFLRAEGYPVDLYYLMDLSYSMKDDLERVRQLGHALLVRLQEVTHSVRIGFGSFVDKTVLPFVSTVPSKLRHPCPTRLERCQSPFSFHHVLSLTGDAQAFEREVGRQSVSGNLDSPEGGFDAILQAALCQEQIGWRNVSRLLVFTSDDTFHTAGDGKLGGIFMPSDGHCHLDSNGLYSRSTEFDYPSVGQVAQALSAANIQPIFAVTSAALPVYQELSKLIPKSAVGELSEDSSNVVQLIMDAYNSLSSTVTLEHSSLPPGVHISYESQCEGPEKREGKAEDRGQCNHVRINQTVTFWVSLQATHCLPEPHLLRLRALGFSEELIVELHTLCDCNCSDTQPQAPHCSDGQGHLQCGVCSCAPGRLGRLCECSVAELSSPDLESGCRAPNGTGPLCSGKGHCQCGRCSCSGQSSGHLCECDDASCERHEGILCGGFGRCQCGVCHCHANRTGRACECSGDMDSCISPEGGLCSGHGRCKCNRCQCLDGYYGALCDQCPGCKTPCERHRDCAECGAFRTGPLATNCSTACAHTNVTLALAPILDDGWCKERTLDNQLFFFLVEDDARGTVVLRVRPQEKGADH
Assay: α4β7-MadCAM Competition ELISA (Example 4)
Type: binding
Details: 4 μg/mL α4β7 coated, MAdCAM and peptide mixture, 28° C.
Procedure: After washing with wash buffer, 200 μL assay buffer was added to each well and incubated for one hour at 28° C. After another wash with wash buffer, 100 μL of a MAdCAM and peptide mixture in assay buffer was added to each well and incubated for one hour at 28° C., followed by washing with wash buffer.

Structure (SMILES) | IC50 [nM]
CCCC[C@@H]1NC(=O)[C@@H]2CCCN2C(=O)[C@@H]2CSCc3cc(cc(c3)OCCCCCCON=CC(=O)N[C@@H](CCCNC(=N)N)C(=O)N2)CSC[C@@H](C(=O)O)NC(=O)[C@H](CCC(=O)O)NC(=O)[C@H](CCC(N)=O)NC(=O)[C@H](Cc2c[nH]c3ccccc23)NC(=O)[C@H](CC2CCC2)NC(=O)[C@H](CC(=O)O)NC1=O [SEQ ID NO: 106] (RCP[Nle]D[Cba]WQEC-OH; linker N-2-10 via X1; C-terminus assumed) | 3450
CCCC[C@@H]1NC(=O)[C@@H]2CCCN2C(=O)[C@@H]2CSCc3cc(cc(c3)OCCCCCCON=CC(=O)N[C@@H](CCCNC(=N)N)C(=O)N2)CSC[C@@H](C(=O)O)NC(=O)[C@H](CCC(=O)O)NC(=O)[C@H](CCC(N)=O)NC(=O)[C@H](Cc2c[nH]c3ccccc23)NC(=O)[C@H](C(C)C)NC(=O)[C@H](CC(=O)O)NC1=O [SEQ ID NO: 148] (RCP[Nle]DVWQEC-OH; linker N-2-10 via X1; C-terminus assumed) | 53
